Reference: paper PMC12730060, “Design, Synthesis, and Antimalarial Evaluation of New Spiroacridine Derivatives” (Antibiotics, 2025)

Columns and labels:
[1] = tested on: P. falciparum Dd2 (chloroquine-resistant); assay type: cell-based, Plasmodium falciparum; details: resistance index = IC50 (Dd2)/IC50 (3D7)
Description: (§1) Firstly, to prepare the samples for in vitro assays, each compound was dissolved in DMSO (Sigma-Aldrich®, Merck, Darmstadt, Germany), obtaining a solution of 5 mM, from which two other solutions, at 100 μM and 10 μΜ were prepared through dilution with RPMI-1640 medium (Invitrogen™, Carlsbad, CA, USA), supplemented with AlbuMAXII (Invitrogen™, Carlsbad, CA, USA). […] These cultures were obtained through BEI Resources, NIAID, NIH (MR4, ATCC®, Manassas, VA, USA), contributed by Andrew M. Talman, Robert E. Sinden, David Walliker, and Didier Ménard. The parasites were cultivated with 5% hematocrit at 37 °C and an atmosphere enriched with 5% of CO2 [54].
(§2) In order to accomplish this, unsynchronized cultures of 3D7-GFP, Dd2, and MRA-1240 were incubated at 1.2% hematocrit and 1.0% parasitemia with serial three-fold dilutions of the compounds, ranging from 10,000 nM to 0.17 nM, in 96-well flat-bottom plates for 72 h at 37 °C and 5% CO2. Parasite growth was quantified by flow cytometry (CytoFLEX, Beckman Coulter Life Sciences, Indianapolis, IN, USA) using GFP detection in a 96-well plate reader (Fl-1 channel) for the 3D7-GFP strain. The others (Dd2 and MRA-1240) were stained with SYBR Green I (20×), which is also detected at 488 nm. Data analysis was performed with FlowJo v10 software (FlowJo LLC, Ashland, OR, USA), and the half-maximal inhibitory concentrations (IC50) were calculated using GraphPad Prism 5 (trial version), with mean IC50 values obtained from at least two independent experiments, each conducted in triplicate.
(§3) All statistical analyses and graphical representations were performed using the GraphPad Prism 8.0 software package. Dose–response curves were generated by fitting the data to a nonlinear regression model [log(inhibitor) vs. response—variable slope]. […] The IC50 values were obtained from the fitted curves. Each experiment was carried out in triplicate and repeated independently, and results were expressed as mean ± standard deviation.

[2] = tested on: P. falciparum MRA-1240 (artemisinin-resistant); assay type: cell-based, Plasmodium falciparum; details: resistance index = IC50 (MRA-1240)/IC50 (3D7)
Description: as §1, §2, §3

[3] = tested on: monkey kidney cells (Vero E6); test: Cytotoxicity, MTT assay; assay type: cell-based; details: for SI 3D7-GFP: selectivity index = IC50 (Vero E6)/IC50 (3D7-GFP); for SI Dd2: selectivity index = IC50 (Vero E6)/IC50 (Dd2); for SI MRA-1240: selectivity index = IC50 (Vero E6)/IC50 (MRA-1240)
Description: In the following stages, to assess the selectivity of compounds against P. falciparum over mammalian cells, the cytotoxicity against monkey kidney cells (Vero E6) was determined through MTT assay after 72h of treatment. Also, the selectivity index (SI) of compounds was calculated by the ratio between a compound’s cytotoxicity against Vero E6 cells and its antiplasmodial activity (SI = Vero E6 IC50/P. falciparum IC50).
For this, monkey kidney cells (Vero E6) were seeded at a density of 5 × 10^3 cells/mL in 96-well plates and allowed to adhere for 6 h. Vero E6 cell line was obtained from the Cell Bank of Rio de Janeiro and cultured in DMEM media (Dulbecco’s Modified Eagle Medium) plus 10% inactivated fetal bovine serum (FBS) and 1% penicillin–streptomycin. Treatments were performed by adding 100 μL of medium solutions with test drugs, resulting in concentrations ranging from 12.5 to 100 µM (DMSO 1%, v/v). After 72 h of incubation at 37 °C and under 5% of CO2, the cultures were incubated with MTT at 0.5 mg/mL for 2 h. After this, the formazan crystals were dried in room temperature and dissolved in DMSO. Cell viability was determined by measuring the absorbance at 570 nm (Absorbance microplate reader EL800, BioTek, Winooski, VT, USA), and control wells containing DMSO at 1% were considered as 100% cell viability.

In the case of N#CC1=CC2(c3ccccc3Nc3ccccc32)N(/N=C/c2ccccc2)C1=O [AMTAC-01], the “RI Dd2” value [1] is reported as 0.6, the “RI MRA-1240” value [2] is reported as 0.8 and the “SI 3D7-GFP” value [3] is reported as >47.3. The “SI Dd2” value [3] was >72.7 and the “SI MRA-1240” value [3] was >60.2.
COc1ccc(/C=N/N2C(=O)C(C#N)=CC23c2ccccc2Nc2ccccc23)cc1 [AMTAC-02] was tested, and the “RI Dd2” value [1] was 1.0, the “RI MRA-1240” value [2] was 1.3 and the “SI 3D7-GFP” value [3] was >31.3. For the same compound, the “SI Dd2” value [3] was >32.0 and the “SI MRA-1240” value [3] was >24.9.
For COc1cc(/C=N/N2C(=O)C(C#N)=CC23c2ccccc2Nc2ccccc23)cc(OC)c1OC [AMTAC-17], the “RI Dd2” value [1] was 1.0, the “RI MRA-1240” value [2] was 1.2 and the “SI 3D7-GFP” value [3] was >30.5. The “SI Dd2” value [3] was >30.4 and the “SI MRA-1240” value [3] was >24.5.
N#CC1=CC2(c3ccccc3Nc3ccccc32)N(/N=C/c2ccnc3ccccc23)C1=O [AMTAC-21, (E)-5′-oxo-1′-((quinolin-4-ylmethylene)amino)-1′,5′-dihydro-10H-spiro[acridine-9,2′-pyrrole]-4′-carbonitrile] was tested, and the “RI Dd2” value [1] was 1.0, the “RI MRA-1240” value [2] was 1.1 and the “SI 3D7-GFP” value [3] was >26.4. The “SI Dd2” value [3] was >25.1 and the “SI MRA-1240” value [3] was >24.6.
In the case of N#CC1=CC2(c3ccccc3Nc3ccccc32)N(/N=C/c2c[nH]c3ccccc23)C1=O [AMTAC-22, (E)-1′-(((1H-indol-3-yl)methylene)amino)-5′-oxo-1′,5′-dihydro-10H-spiro[acridine-9,2′-pyrrole]-4′-carbonitrile], the “RI Dd2” value [1] is reported as 0.8, the “RI MRA-1240” value [2] is reported as 1.0 and the “SI 3D7-GFP” value [3] is reported as >33.2. For the same compound, the “SI Dd2” value [3] was >42.7 and the “SI MRA-1240” value [3] was >34.7.
